Measured values: patent US20090274682A1
No constants are given. Whether binding was seen depends on the method and setting. Some entries that bind do so weakly or less than the wild type.

Amino acid sequences for entries named in this document (tags omitted). A change or cut given only in a name is not applied to a line headed by its entry.
UniProt P30153: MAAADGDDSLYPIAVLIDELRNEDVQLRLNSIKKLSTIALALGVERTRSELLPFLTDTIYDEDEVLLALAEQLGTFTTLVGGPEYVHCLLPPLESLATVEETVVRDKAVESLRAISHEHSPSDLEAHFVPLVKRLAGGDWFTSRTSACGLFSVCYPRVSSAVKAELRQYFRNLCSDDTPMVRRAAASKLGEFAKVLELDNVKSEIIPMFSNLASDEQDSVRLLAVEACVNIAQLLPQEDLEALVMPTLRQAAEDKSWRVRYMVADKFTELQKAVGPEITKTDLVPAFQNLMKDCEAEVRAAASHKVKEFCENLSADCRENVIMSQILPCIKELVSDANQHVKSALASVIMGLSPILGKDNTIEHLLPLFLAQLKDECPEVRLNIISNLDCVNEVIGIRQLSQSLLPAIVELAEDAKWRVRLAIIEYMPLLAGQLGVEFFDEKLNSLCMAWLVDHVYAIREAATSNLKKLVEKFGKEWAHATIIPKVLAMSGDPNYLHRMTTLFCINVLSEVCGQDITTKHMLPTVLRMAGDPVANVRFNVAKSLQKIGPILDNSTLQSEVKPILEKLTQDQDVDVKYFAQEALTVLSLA

Molecular target: PP2A core enzyme (AC heterodimer) involving the full-length A subunit (human) (UniProt P30153)
Experiment: complex fractionated by size exclusion chromatography (FIG. 10)

B1: PME-1 M335D (enzyme)
chain: MSALEKSMHLGRLPSRPPLPGSGGSQSGAKMRMGPGRKRDFSPVPWSQYFESMEDVEVENETGKDTFRVYKSGSEGPVLLLLHGGGHSALSWAVFTAAIISRVQCRIVALDLRSHGETKVKNPEDLSAETMAKDVGNVVEAMYGDLPPPIMLIGHSMGGAIAVHTASSNLVPSLLGLCMIDVVEGTAMDALNSMQNFLRGRPKTFKSLENAIEWSVKSGQIRNLESARVSMVGQVKQCEGITSPEGSKSIVEGIIEEEEEDEEGSESISKRKKEDDMETKKDHPYTWRIELAKTEKYWDGWFRGLSNLFLSCPIPKLLLLAGVDRLDKDLTIGQDQGKFQMQVLPQCGHAVHEDAPDKVAEAVATFLIRHRFAEPIGGFQCVFPGC
Q: How did the binding turn out when B1 was run?
A: Its binding is “binds”.
